# ± gives the standard deviation. The entries are a selection whose mix differs from that of the whole data set. Many of these values have a large error. The list shows a part of the results.
# What was measured:
# [1] = tested on: MILI (PIWIL2) piRISC loaded with L1MC piRNA (26 nt); assay: pre-steady-state target cleavage rate (min^-1); higher = faster piRNA-guided slicing of the target; settings: guide: L1MC piRNA 5'p-UAACUAAAUACUAUGCAAGCUGUAGG; auxiliary factor: none (no GTSF1)
# Summary of the method: (§1)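 At 33 °C in HEPES–potassium acetate buffer, a transcribed, DNA-blocked target RNA library […] was exposed for 0–8 or 0–960 min to 1 nM active affinity-purified piRISC carrying a single synthetic guide, with or without 500 nM GTSF1 partner protein. Uncleaved targets were sequenced and normalised to depth and to weakly complementary targets. With three trials pooled and k3 capped at 0.0001 min^-1, a burst-and-steady-state fit produced the pre-steady-state cleavage rate.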
# [2] = tested on: MIWI (PIWIL1) piRISC loaded with L1MC piRNA (30 nt); assay: as above; settings: guide: L1MC piRNA 5'p-UAACUAAAUACUAUGCAAGCUGUAGGUCCU
# Summary of the method: as §1
# [3] = tested on: EfPiwi piRISC loaded with L1MC piRNA (26 nt); assay: pre-steady-state target cleavage rate (min^-1); guide: L1MC piRNA 5'p-UAACUAAAUACUAUGCAAGCUGUAGG; MIWI and MILI are mouse PIWI proteins and EfPiwi is from a freshwater sponge; tags in brackets are library labels; higher = faster piRNA-guided slicing of the target
# Summary of the method: as §1
# [4] = auxiliary factor: none (no GTSF1)
# [5] = auxiliary factor: 500 nM Ephydatia muelleri Gtsf1
Sequence,pre-steady-state target cleavage rate [1],"pre-steady-state target cleavage rate [2, 4]","pre-steady-state target cleavage rate [3, 5]",pre-steady-state target cleavage rate ([2]; auxiliary factor: 500 nM mouse GTSF1),pre-steady-state target cleavage rate ([3]; auxiliary factor: none (no Gtsf1))
UCCUGGAUCAGCUUGCAAUCUAUUUAGUAA,0.000684 ± 0.0073,0.00159 ± 0.0041,0.000348 ± 0.011,,
UCCUGGAUGUCGAUGCAUAGUAUUUAUUUA,0.000945 ± 0.0063,,0.000255 ± 0.03,0.0013 ± 0.0083,
UCCUCCUACAGCUUCCAUAGUAUUUUGUUA,0.000555 ± 0.0093,0.00102 ± 0.0049,0.00145 ± 0.002,,
UCCUGGAUGUCGAACCAUGUAUUUAGUUA,0.000178 ± 0.016,0.000417 ± 0.012,0.00037 ± 0.013,,
UCCUCCUACUCGUUGCAUAGUAUUUUCAAA,0.000851 ± 0.0039,0.000501 ± 0.0055,0.00113 ± 0.0066,,
UCCUGGAUGUCGAAGCAUAGUAUAUUGUUA,0.000992 ± 0.0059,0.000429 ± 0.012,0.000204 ± 0.016,,
UCCUGGAUGUCCUUGCUAAGUAUUUAGUAA,0.000427 ± 0.015,0.000501 ± 0.015,0.000515 ± 0.0073,,
UCCUGGAUGUGCUUGCAUAGAUAUUAGUUA,0.00104 ± 0.0067,0.000298 ± 0.015,0.00162 ± 0.0069,,
UCCUGGAUGUCCUUGCAAAGUAUUUACUUA,0.00195 ± 0.0031,0.00204 ± 0.0026,,,0.000277 ± 0.023
UCCUGGAUGUCGAAGCAUAGUUAAUAGUUA,0.000624 ± 0.01,0.000607 ± 0.0082,0.000783 ± 0.0083,,
UCCUGGAUGUCCUUGGAUAGUAUUUACUUA,0.000693 ± 0.0069,0.000228 ± 0.028,0.000163 ± 0.039,,
UCCUGGAUCUCCUUGCAUAGUAUUUUCAAA,0.000896 ± 0.008,0.0013 ± 0.0049,0.000701 ± 0.0082,,
UCCUGCUACAGCUUGCAUAGCUAUUUAGUUA,0.00143 ± 0.0053,0.00161 ± 0.0073,0.00152 ± 0.0025,,
UCCUGCUACAGCUUGCAAUCUAUUUAGUAA,0.000902 ± 0.0042,0.00184 ± 0.0038,0.000776 ± 0.0062,,
UCCUGCUACUCCUUGCAUAGUAUUUUCAAA,0.000946 ± 0.0055,0.00115 ± 0.0044,0.00232 ± 0.0037,,
UCCUGGAUGUCGAUGCAUAGUAUUUUGAUA,0.00063 ± 0.0076,0.000526 ± 0.011,0.00125 ± 0.0054,,
UCCUGGAUGUCGAUGCAAUGUAUUUAGUUA,0.000511 ± 0.0088,0.000841 ± 0.0063,0.000325 ± 0.0076,,
UCCUGGAUGUCCUUGCAUACUAUAUAGUUA,0.00151 ± 0.0039,0.000833 ± 0.0076,0.000254 ± 0.014,,
UCCUGGAUGUCCUUGCAUAGUAUUAUCUAA,0.000627 ± 0.0075,0.000603 ± 0.0085,0.00133 ± 0.0058,,

# Quoted at random: 2 records from the list
Sequence,pre-steady-state target cleavage rate [1],"pre-steady-state target cleavage rate [2, 4]","pre-steady-state target cleavage rate [3, 5]",pre-steady-state target cleavage rate ([2]; auxiliary factor: 500 nM mouse GTSF1),pre-steady-state target cleavage rate ([3]; auxiliary factor: none (no Gtsf1))
UCCUGGAUGUCGAUGCAUAGUAUUUUGAUA,0.00063 ± 0.0076,0.000526 ± 0.011,0.00125 ± 0.0054,,
UCCUGGAUGUCGAAGCAUAGUUAAUAGUUA,0.000624 ± 0.01,0.000607 ± 0.0082,0.000783 ± 0.0083,,

# Reference: the supplement of paper PMC10338343
